Results are given in words; binding and its absence hold for the method and conditions named. In cells and extracts the contact can be indirect. Some binding calls cover weakened binding; strength is not graded here.

The chains behind the UniProt entries cited, without tags or fusion partners. Where a name states a change or a piece, a line headed by the entry shows the natural chain unless it says otherwise.
UniProt P54198: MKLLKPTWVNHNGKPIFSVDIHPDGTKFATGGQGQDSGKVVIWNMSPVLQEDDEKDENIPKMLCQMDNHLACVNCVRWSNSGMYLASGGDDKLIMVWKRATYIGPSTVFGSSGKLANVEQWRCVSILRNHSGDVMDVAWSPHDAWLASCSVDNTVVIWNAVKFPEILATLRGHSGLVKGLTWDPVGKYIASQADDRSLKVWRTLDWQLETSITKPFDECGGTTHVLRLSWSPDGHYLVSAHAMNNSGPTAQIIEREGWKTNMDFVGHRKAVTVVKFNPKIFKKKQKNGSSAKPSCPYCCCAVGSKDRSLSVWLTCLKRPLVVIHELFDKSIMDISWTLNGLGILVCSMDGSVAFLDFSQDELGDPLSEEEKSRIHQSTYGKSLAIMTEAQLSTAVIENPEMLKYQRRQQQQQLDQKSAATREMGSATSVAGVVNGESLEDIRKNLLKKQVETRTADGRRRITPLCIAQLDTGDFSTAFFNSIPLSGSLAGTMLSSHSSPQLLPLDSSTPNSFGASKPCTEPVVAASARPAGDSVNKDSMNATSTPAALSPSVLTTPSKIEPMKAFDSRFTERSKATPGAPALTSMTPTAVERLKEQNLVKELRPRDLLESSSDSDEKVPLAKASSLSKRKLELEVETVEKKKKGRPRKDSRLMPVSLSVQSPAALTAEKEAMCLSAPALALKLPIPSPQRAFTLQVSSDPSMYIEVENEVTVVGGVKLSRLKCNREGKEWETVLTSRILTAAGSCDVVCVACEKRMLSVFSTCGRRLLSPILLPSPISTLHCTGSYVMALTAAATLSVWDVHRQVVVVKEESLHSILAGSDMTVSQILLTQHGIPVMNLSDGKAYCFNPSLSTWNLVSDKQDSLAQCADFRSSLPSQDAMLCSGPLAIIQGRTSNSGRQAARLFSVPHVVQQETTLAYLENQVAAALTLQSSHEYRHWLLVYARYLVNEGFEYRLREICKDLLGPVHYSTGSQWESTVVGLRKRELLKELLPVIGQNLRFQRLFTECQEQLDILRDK
UniProt Q9NPG3: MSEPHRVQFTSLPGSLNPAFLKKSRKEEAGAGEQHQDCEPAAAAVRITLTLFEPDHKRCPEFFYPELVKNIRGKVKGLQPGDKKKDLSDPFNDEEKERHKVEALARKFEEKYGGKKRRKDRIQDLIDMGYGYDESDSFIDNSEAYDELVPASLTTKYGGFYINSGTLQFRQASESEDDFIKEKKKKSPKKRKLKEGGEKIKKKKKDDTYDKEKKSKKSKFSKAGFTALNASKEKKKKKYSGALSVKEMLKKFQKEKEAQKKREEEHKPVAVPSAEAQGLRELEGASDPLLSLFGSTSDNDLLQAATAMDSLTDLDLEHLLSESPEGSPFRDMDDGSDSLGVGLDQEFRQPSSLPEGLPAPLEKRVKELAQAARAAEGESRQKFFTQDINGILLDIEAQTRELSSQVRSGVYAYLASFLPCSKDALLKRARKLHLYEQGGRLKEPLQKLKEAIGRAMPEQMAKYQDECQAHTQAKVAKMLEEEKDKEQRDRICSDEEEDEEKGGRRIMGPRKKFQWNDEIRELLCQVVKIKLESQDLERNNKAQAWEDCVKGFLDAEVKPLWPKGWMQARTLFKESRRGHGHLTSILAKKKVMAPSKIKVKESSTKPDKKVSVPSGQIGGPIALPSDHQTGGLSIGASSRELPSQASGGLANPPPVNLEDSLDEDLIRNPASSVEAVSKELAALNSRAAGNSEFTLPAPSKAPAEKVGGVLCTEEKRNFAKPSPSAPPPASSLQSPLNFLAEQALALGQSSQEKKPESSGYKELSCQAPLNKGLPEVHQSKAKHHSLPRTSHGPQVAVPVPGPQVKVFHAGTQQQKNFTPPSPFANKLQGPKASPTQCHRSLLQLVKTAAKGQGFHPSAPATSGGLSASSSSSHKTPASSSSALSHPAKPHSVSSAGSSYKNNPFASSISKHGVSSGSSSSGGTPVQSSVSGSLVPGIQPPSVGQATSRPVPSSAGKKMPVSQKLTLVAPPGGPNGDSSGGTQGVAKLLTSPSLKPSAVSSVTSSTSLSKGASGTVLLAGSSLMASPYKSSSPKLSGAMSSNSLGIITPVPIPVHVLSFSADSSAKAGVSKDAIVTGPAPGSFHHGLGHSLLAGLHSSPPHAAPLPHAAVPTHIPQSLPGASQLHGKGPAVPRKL
UniProt Q96EB6: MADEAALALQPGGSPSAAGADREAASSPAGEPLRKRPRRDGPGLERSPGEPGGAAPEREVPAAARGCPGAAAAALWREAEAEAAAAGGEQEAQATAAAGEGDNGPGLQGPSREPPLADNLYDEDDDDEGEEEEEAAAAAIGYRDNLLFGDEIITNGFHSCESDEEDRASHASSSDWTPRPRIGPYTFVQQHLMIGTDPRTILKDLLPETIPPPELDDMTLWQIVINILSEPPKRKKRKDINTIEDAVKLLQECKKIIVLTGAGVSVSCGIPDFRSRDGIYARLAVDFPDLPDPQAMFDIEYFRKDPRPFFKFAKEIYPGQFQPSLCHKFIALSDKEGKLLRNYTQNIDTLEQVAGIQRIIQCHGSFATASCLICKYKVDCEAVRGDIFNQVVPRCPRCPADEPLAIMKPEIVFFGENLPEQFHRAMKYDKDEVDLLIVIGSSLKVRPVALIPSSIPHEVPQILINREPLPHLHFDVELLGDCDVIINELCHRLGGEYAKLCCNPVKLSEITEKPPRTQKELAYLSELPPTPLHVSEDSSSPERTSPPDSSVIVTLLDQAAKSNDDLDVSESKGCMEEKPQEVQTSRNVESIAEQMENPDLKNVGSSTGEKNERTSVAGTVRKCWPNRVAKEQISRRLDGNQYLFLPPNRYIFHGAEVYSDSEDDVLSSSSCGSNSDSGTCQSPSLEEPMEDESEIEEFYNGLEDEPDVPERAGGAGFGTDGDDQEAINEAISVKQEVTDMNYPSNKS
UniProt Q09472: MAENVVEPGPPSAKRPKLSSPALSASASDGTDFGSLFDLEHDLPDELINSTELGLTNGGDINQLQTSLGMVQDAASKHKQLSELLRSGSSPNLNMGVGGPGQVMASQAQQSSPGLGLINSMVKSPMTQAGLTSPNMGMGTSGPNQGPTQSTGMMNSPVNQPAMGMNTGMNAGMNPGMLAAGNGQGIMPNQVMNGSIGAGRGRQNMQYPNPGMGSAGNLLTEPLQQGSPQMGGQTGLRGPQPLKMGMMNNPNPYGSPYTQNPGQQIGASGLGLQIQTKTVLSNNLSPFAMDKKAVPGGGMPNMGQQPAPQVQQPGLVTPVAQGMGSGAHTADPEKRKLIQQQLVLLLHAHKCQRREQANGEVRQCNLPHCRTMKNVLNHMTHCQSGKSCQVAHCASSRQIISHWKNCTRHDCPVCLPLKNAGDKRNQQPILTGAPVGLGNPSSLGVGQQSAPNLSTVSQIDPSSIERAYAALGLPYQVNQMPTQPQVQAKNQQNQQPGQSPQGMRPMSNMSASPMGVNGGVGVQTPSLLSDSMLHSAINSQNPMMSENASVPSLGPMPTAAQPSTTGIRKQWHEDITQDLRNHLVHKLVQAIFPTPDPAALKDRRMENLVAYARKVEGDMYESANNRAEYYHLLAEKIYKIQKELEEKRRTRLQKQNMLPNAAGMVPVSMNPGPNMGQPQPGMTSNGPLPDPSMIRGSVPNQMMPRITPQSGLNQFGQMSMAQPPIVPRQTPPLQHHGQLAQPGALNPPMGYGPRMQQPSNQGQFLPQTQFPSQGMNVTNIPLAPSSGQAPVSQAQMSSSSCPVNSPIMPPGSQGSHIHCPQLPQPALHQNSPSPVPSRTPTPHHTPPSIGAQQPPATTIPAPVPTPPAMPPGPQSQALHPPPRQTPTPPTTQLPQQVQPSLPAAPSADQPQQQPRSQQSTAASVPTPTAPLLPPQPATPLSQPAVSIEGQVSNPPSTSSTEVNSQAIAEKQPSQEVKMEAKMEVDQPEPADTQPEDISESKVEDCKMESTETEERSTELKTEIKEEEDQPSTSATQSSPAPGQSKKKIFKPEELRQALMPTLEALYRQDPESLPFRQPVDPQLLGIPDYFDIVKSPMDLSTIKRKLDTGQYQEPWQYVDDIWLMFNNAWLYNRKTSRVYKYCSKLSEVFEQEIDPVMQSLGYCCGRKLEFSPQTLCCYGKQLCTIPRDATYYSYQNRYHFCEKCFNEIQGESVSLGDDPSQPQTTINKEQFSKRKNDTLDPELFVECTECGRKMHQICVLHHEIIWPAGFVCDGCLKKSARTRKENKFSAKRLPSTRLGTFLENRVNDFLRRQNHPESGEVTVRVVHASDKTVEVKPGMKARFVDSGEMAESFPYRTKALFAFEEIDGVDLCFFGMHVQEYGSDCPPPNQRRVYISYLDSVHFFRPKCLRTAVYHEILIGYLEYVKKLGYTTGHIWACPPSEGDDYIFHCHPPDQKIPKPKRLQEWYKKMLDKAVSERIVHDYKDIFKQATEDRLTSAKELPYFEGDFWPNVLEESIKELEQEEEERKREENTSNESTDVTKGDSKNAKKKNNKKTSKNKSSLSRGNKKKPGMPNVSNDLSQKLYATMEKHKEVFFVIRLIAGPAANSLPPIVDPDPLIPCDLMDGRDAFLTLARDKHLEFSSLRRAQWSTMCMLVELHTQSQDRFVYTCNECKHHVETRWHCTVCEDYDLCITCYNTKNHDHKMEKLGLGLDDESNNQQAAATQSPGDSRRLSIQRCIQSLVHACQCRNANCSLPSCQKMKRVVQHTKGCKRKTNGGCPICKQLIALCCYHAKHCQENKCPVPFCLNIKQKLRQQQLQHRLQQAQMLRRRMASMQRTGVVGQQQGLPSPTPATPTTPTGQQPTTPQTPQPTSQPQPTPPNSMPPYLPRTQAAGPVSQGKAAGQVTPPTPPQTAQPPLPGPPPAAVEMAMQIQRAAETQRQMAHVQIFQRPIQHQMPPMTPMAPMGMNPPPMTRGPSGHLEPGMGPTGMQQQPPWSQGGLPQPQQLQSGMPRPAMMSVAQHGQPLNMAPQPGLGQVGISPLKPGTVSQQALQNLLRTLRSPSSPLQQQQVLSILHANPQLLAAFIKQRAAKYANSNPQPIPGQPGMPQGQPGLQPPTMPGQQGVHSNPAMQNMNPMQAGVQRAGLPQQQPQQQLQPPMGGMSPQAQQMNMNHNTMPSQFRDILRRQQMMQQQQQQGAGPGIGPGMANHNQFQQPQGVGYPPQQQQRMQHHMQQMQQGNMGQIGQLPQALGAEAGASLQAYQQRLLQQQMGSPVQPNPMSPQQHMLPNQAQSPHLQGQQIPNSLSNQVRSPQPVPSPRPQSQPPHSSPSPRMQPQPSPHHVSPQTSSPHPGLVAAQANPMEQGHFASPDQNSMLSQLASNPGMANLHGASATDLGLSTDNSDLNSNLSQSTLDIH

Targets include Myc-HIRA WT (human) (UniProt P54198); Myc-HIRA K600Q (human) (UniProt P54198); Myc-HIRA K600R (human) (UniProt P54198); Flag-UBN1 (UniProt Q9NPG3).
Holding throughout (experiment): co-IP

Consider “Flag-SIRT1 (from UniProt Q96EB6) (enzyme)”, for which the binding entry with Myc-HIRA WT (human) is listed as “binds”.

Consider Flag-UBN1 (from UniProt Q9NPG3 1-1134), for which the binding entry in the test with Myc-HIRA K600Q (human) and with Myc-HIRA K600R (human) was “binds” throughout. Regarding “HA-P300 (from UniProt Q09472 1-2414) (enzyme)”, the binding entry in the test with Myc-HIRA WT (human) is recorded as “binds”. Turning to “Myc-HIRA K600Q (from UniProt P54198 1-1017)”, in the test with Flag-UBN1, the binding entry is “binds”. On the same count and under the same terms, the same measure for “Myc-HIRA K600R (from UniProt P54198 1-1017)”: “binds”.

Source of the values: article doi:10.1101/2024.08.07.606949.
